# From US4480118A, “Carboxylic acid ester and an insecticidal and/or acaricidal composition containing the same” (priority 1981, dated 1984)
# The name of at least one read-out is uncertain. Some compounds share one range, which may span the group rather than tell each member.
# Tested on: carmine mite
# Assay: Controlling effect on carmine mite
# Format: in vivo
# Details: 500 ppm emulsion (chlorodimeform: 1,000-fold dilution of 50% emulsifiable concentrate), counted after 10 days
row,Structure (SMILES),Efficacy (number of adult female mites per leaf)
1,CC1(C)C(C(=O)OC(C#N)c2cccc(Oc3ccccc3)c2)C12Cc1ccc(F)cc1C2 (stereo not drawn) [Compound 4],++ (0-9)
2,CC1(C)C(C(=O)O[C@H](C#N)c2cccc(Oc3ccccc3)c2)C12Cc1ccccc1C2 (stereo partly drawn) [Compound 9],++ (0-9)
3,CC1(C)[C@@H](C(=O)OC(C#N)c2cccc(Oc3ccccc3)c2)[C@@]12Cc1ccccc1O2 (relative stereo) [Compound 18],++ (0-9)
4,CC1(C)C(C(=O)OC(C#N)c2ccc(F)c(Oc3ccccc3)c2)C12Cc1ccccc1C2 (stereo not drawn) [Compound 7],++ (0-9)
5,CC1(C)C(C(=O)OCc2coc(Cc3ccccc3)c2)C12Cc1ccccc1C2 (stereo not drawn) [Compound 11],++ (0-9)
6,CC1(C)C(C(=O)OC(C#N)c2cccc(Oc3ccccc3)c2)C12Cc1c(F)c(F)c(F)c(F)c1C2 (stereo not drawn) [Compound 1],++ (0-9)
7,CC1(C)C(C(=O)OC(C#N)c2cccc(Oc3ccccc3)c2)C12Cc1ccccc1C2 (stereo not drawn) [Compound 2],++ (0-9)
8,CC1(C)C(C(=O)OC(C#N)c2cccc(Oc3ccccc3)c2)C12Cc1ccc(Cl)cc1C2 (stereo not drawn) [Compound 3],++ (0-9)
9,CC1(C)C(C(=O)O[C@H](C#N)c2cccc(Oc3ccccc3)c2)C12Cc1ccccc1C2 (stereo partly drawn) [Compound 8],++ (0-9)
